In publication PMC11585782, “The Plastidial Protein Acetyltransferase GNAT1 Forms a Complex With GNAT2, yet Their Interaction Is Dispensable for State Transitions” (Molecular & Cellular Proteomics : MCP, 2024) one finds binding data, which are given here for one substance.

Protein sequences, listed by entry. Tags and fused reporters are not part of them. Residues count along the entry.
UniProt Q7X9V3, residues 59-258: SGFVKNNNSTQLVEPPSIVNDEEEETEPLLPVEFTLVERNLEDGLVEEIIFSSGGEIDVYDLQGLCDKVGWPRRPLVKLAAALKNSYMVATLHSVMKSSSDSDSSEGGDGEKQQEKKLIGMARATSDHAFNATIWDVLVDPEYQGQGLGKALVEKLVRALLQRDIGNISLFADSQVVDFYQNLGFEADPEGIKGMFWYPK

Experiment [1] addresses T1, GNAT3-GFP (Arabidopsis thaliana) (UniProt Q940H2).
T1 sequence: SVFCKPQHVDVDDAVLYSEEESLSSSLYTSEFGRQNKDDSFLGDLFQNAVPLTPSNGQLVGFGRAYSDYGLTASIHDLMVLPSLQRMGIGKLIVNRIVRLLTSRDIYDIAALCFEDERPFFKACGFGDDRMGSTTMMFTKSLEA
The experiment can be described thus: cross-linking; DSSO (12 mM, 1 h at 8 °C) added on the washed GFP-Trap beads of the GNAT-GFP pulldowns from leaf extract; cross-linked peptides identified by MS (XlinkX).

Experiment [2] concerns the target T2, GNAT1-GFP (Arabidopsis thaliana) (UniProt Q9C666).
T2 sequence: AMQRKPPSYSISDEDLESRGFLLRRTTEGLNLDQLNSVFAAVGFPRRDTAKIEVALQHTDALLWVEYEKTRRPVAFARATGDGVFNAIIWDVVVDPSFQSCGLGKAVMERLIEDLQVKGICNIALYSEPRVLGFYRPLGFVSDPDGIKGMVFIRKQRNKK
Described as above.

Results are given in words; binding and its absence hold for the method and conditions named. Binding seen in cells or lysates may run through a third protein. Some binding calls cover weakened binding; strength is not graded here. Where a sequence is shown, tags or fusion partners need not be part of it.

As to “GNAT2 (from UniProt Q7X9V3 59-258) (enzyme)”, the binding result in experiment [1] and in experiment [2] was “binds” throughout.
